According to publication PMC12201986:
These are yes or no findings as the source states them, for the method shown. Binding seen in cells or lysates may run through a third protein. Some binding calls cover weakened binding; strength is not graded here.

Chains of the proteins cited; added tags and fusions are not shown.
UniProt Q8CFN5: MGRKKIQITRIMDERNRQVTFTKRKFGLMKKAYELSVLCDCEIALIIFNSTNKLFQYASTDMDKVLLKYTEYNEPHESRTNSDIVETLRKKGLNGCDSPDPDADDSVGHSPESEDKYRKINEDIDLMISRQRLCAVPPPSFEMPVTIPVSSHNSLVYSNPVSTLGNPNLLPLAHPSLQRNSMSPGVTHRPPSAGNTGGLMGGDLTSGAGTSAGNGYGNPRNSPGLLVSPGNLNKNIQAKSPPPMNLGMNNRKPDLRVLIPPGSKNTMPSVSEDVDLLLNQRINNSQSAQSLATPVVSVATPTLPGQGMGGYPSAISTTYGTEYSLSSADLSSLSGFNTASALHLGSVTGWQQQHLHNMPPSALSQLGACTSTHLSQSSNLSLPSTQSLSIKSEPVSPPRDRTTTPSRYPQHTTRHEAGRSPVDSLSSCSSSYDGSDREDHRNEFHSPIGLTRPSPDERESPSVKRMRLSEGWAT
UniProt Q6P9Z1: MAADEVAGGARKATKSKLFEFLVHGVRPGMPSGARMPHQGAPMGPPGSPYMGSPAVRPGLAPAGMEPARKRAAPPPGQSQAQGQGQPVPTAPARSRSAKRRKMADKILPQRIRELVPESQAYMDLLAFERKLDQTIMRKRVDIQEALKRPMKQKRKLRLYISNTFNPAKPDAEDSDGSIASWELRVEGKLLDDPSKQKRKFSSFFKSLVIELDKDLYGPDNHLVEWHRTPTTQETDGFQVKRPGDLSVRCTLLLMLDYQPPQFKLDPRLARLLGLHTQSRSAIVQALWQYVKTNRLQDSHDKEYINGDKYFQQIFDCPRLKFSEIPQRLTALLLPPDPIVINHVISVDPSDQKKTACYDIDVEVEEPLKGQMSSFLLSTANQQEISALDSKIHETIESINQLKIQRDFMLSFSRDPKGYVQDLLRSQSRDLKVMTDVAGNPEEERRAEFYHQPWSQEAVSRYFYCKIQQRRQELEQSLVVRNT

Tests used:
Flag/HA-tagged Mef2c = Flag/HA-tagged Mef2c (UniProt Q8CFN5); experiment: co-IP; HEK293T cells transiently transfected with Myc-tagged Baf60c and Flag/HA-tagged Mef2a or Mef2c; lysate incubated with anti-HA agarose at 4°C overnight, washed five times, immunoblotting
[1] = molecular target: Flag-HA tagged Baf60c (muscle-specific transgene, MCK-Bc mice) (UniProt Q6P9Z1); experiment: co-IP; quadriceps muscle lysate of WT and MCK-Bc (Flag-HA tagged Baf60c transgenic) mice; incubated with anti-Flag agarose at 4°C overnight, washed five times, immunoblotting

Substance | binding (Flag/HA-tagged Mef2c) | binding [1]
Myc-tagged Baf60c (from UniProt Q6P9Z1 1-483) | binds | 
endogenous Mef2c (from UniProt Q8CFN5 1-474) |  | binds
